No constants are given. Whether binding was seen depends on the method and setting. Some binding calls cover weakened binding; strength is not graded here.
Biological target: human IL-17RA (human) (UniProt Q96F46)
Experiment: description of the panel of Table 34; binding assay not given at this place

Chains of the proteins cited; added tags and fusions are not shown. Residues count along the entry.
UniProt Q96F46, residues 33-866: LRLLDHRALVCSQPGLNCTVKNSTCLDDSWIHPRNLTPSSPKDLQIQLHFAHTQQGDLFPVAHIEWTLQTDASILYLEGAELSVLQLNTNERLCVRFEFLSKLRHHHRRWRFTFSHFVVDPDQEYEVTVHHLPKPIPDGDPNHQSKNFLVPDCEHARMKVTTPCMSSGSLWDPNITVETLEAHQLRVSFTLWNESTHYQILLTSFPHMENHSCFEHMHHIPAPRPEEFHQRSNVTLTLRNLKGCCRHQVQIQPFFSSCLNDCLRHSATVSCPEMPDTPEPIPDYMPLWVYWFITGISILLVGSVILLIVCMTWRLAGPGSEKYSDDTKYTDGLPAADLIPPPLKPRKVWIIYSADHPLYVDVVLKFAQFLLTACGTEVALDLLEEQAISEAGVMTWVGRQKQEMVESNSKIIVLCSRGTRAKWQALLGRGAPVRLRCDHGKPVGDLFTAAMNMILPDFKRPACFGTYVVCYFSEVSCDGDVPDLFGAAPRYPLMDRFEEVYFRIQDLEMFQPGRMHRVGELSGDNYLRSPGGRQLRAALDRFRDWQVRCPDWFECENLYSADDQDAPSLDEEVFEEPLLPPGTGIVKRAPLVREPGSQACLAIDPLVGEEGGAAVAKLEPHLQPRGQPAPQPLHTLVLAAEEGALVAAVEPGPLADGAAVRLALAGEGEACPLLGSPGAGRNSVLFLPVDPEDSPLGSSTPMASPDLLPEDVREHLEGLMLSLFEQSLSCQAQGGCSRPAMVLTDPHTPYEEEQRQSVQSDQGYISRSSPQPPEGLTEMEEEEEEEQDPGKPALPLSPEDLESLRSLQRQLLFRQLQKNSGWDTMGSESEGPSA

| Binder | binding |
| --- | --- |
| 2.67.1 (antibody, V domains shown) VH: QVQLVQSGAEVKKPGASVKVSCKASGYTLTRYGISWVRQAPGQGLEWMGWISAYNGNTNYAQKLQGRVTMTTDTSTSTAYMELRSLRSDDTAVYYCARRDYDILTGYYNGFDPWGQGTLVTVSS VL: DIQMTQSPSSLSASVGDRVTITCRASQGIRNDLGWYQQKPGKAPKRLIYAASSLQSGVPSRFSGSGSGTEFTLTISSLQPEDFATYYCLQHKSYPLTFGGGTKVEIK | binds |
| 2.98.1 (antibody, V domains shown) VH: QVQLVQSGAEVKKPGASVKVSCKASGYTLTRYGISWVRQAPGQGLEWMGWISAYNGNTNYAQKLQGRVTMTTDTSTSTAYMELRSLRSDDTAVYYCARRDYDILTGYYNGFDPWGQGTLVTVSS VL: DIQMTQSPSSLSASVGDRVTITCRASQGIRNDLGWYQQKPGKAPKRLIYAASSLQSGVPSRFSGSGSGTEFTLTISSLQPEDFATYYCLQHKSYPLTFGGGTKVEIK | binds |

From patent US20160208004A1
